Data as given in BindingDB's records for PubMed 8301582 (Neuroscience Research Centre, 1994).

Protein sequences, listed by entry. Tags and fused reporters are not part of them. Chains listed by the source or under a name are the forms on record and can include a tag or linker.
UniProt P35462, as listed by the source: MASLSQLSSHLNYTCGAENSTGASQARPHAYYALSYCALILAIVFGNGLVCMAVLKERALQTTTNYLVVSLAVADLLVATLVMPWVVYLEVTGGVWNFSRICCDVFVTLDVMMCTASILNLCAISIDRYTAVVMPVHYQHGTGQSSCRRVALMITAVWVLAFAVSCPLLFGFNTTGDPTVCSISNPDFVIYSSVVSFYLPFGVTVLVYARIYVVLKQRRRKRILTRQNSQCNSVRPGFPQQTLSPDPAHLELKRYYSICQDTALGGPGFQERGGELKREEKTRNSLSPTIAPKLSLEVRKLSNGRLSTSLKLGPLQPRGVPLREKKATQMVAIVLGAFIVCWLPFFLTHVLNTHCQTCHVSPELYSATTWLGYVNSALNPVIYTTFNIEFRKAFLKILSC

Target: D(3) dopamine receptor (Homo sapiens, UniProt P35462)

O=c1[nH]c2ccccc2n1CCCN1CCC(n2c(=O)[nH]c3cc(Cl)ccc32)CC1
Ki: 2.9 nM
